According to article PMC11471967:
Results are given in words; binding and its absence hold for the method and conditions named. For part of these data: In cells and extracts the contact can be indirect. Some entries that bind do so weakly or less than the wild type. Blank lines part the entries; values can stand above or below the molecule they belong to.

Protein sequences, listed by entry. Tags and fused reporters are not part of them. Lines headed by an entry give the natural chain unless they say otherwise; changes in a name come on top. Residues count along the entry.
UniProt P19838, residues 1-433: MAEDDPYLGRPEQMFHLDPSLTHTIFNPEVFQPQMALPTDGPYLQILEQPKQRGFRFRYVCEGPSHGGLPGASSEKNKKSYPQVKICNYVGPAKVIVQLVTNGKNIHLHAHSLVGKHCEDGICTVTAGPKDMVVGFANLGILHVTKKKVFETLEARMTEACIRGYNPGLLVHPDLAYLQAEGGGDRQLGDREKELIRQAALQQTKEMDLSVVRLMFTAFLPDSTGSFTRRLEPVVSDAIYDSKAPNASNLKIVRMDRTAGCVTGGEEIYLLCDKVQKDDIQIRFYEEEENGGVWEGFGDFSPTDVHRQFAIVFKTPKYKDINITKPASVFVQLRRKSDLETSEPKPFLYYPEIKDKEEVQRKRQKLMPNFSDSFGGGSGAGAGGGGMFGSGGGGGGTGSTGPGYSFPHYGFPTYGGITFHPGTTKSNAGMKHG
UniProt Q04206: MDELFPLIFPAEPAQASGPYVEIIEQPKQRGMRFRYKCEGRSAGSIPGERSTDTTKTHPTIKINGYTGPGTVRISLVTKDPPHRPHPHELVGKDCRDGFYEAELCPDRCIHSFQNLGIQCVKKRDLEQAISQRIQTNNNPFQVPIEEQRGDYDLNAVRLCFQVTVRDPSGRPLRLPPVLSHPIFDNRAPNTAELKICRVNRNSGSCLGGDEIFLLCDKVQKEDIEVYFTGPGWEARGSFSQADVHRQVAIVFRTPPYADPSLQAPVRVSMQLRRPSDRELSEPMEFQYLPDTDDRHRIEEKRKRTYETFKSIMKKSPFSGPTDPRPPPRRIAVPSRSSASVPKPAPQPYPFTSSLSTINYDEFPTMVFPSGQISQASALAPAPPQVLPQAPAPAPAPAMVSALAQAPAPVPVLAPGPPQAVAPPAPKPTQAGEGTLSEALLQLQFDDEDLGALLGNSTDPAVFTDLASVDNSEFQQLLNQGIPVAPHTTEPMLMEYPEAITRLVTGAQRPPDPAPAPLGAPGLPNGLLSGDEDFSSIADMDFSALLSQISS
UniProt Q03181: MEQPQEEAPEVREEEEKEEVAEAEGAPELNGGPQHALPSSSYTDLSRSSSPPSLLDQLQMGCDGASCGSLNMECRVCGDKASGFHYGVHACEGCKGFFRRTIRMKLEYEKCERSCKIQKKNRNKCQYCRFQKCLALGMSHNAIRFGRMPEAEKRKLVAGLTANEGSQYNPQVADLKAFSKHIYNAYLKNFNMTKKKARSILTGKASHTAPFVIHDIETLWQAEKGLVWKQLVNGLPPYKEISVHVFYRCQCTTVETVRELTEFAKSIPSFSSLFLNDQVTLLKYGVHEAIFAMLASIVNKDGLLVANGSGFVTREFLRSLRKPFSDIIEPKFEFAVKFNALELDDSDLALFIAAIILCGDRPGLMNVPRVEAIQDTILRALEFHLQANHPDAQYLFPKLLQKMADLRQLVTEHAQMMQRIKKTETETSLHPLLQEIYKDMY
UniProt P35396: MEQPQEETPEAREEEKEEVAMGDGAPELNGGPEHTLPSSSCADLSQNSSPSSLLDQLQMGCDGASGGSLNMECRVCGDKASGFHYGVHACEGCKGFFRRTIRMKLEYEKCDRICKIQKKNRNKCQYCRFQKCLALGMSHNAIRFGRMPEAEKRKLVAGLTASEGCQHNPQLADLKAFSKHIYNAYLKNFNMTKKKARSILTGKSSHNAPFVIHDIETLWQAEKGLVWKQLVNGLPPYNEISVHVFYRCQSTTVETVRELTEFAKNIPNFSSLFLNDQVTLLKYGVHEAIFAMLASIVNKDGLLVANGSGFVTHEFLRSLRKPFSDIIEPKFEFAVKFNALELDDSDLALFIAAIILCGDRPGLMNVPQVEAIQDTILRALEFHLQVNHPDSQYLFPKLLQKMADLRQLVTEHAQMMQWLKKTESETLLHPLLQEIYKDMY

Assays:
[1] = target: GST-tagged NF-κB1 p50 protein (UniProt P19838); experiment: pull-down; GST-tagged p50 incubated with p65 or PPARδ or both in coimmunoprecipitation buffer with Glutathione Sepharose 4B, 4°C, 3 hours; Western blot; both purified
[2] = target: RelA (p65), in nuclear extracts of mouse CTLs (mouse (endogenous in murine CTLs)) (UniProt Q04207); experiment: co-IP; nuclear extracts from human or mouse CTLs, diluted in 20 mmol/L HEPES pH 7.5, 150 mmol/L NaCl, 1% Triton X-100, 1 mmol/L EDTA, 10% glycerol; anti-p65 or anti-PPARδ antibody and protein A/G agarose, 4°C overnight; Western blot; cells untreated, treated with GW501516, PPARδ siRNA, PPARδ plasmid, or Ppard−/−
[3] = target: RelA (p65), in nuclear extracts of human CTLs (human (endogenous in human CTLs)) (UniProt Q04206); experiment: native gel or EMSA; nuclear extracts (5 μg) of human CTLs with NF-κB oligonucleotide, 4% nondenaturing polyacrylamide gel, then transfer and Western blot for RelA, p50 or PPARδ
[4] = target: RelA (p65), in nuclear extracts of human CTLs (human (endogenous in human CTLs)) (UniProt Q04206); experiment: co-IP; nuclear extracts from human or mouse CTLs, diluted in 20 mmol/L HEPES pH 7.5, 150 mmol/L NaCl, 1% Triton X-100, 1 mmol/L EDTA, 10% glycerol; anti-p65 or anti-PPARδ antibody and protein A/G agarose, 4°C overnight; Western blot; cells untreated, treated with GW501516, PPARδ siRNA, PPARδ plasmid, or Ppard−/−
[5] = target: T1, RelA (p65), in nuclear extracts of mouse CTLs (mouse (endogenous in murine CTLs)), Q04207; experiment: as above; conditions: remark: other sources report otherwise
T1 chain: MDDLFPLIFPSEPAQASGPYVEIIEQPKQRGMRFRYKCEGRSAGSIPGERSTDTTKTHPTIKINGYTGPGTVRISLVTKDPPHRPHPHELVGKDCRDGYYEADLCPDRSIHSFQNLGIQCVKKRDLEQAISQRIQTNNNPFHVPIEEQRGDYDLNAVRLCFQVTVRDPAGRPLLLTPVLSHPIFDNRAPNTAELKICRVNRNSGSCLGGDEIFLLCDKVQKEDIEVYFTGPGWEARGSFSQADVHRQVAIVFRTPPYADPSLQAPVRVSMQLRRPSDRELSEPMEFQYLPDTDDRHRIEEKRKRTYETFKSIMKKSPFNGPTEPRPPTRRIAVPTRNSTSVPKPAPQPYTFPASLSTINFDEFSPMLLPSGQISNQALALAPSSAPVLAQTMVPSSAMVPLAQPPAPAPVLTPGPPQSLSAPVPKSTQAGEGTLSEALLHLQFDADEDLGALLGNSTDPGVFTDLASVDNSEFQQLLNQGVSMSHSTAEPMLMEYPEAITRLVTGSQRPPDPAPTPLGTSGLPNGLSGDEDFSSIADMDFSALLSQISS

Molecule: purified PPARδ (from UniProt Q03181 1-441)
binding [1]: no binding

Molecule: PPARδ, in nuclear extracts of mouse CTLs (from UniProt P35396 1-440)
binding [2]: binds

B1: NF-κB1/p50, in nuclear extracts of mouse CTLs, P25799 1-431 (protein)
chain: MADDDPYGTGQMFHLNTALTHSIFNAELYSPEIPLSTDGPYLQILEQPKQRGFRFRYVCEGPSHGGLPGASSEKNKKSYPQVKICNYVGPAKVIVQLVTNGKNIHLHAHSLVGKHCEDGVCTVTAGPKDMVVGFANLGILHVTKKKVFETLEARMTEACIRGYNPGLLVHSDLAYLQAEGGGDRQLTDREKEIIRQAAVQQTKEMDLSVVRLMFTAFLPDSTGSFTRRLEPVVSDAIYDSKAPNASNLKIVRMDRTAGCVTGGEEIYLLCDKVQKDDIQIRFYEEEENGGVWEGFGDFSPTDVHRQFAIVFKTPKYKDVNITKPASVFVQLRRKSDLETSEPKPFLYYPEIKDKEEVQRKRQKLMPNFSDSFGGGSGAGAGGGGMFGSGGGGGSTGSPGPGYGYSNYGFPPYGGITFHPGVTKSNAGVTHG
binding [5]: binds

Other lines, results leading:

binding [1]: binds
Molecule: purified p65 (RelA) (from UniProt Q04206 1-551)

binding [3]: binds
binding [4]: binds
Molecule: NF-κB1/p50, in nuclear extracts of human CTLs (from UniProt P19838 1-433)
